The name of at least one read-out is uncertain.
Experiment: Pharmacokinetic evaluation in mice (iv, LC/MS/MS plasma)
Format: in vivo
Settings: C57 mice, female, intravenous administration, dose 1 mg/kg (table)
Method: The drug concentration in the plasma of the test animals (mice) at different time points after intravenous (iv) administration of compound 10 and AZD4320 was determined by an LC/MS/MS method. The pharmacokinetic behavior of the compounds of the present disclosure in mice was studied and their pharmacokinetic profile was valuated.
18 C57 mice, female, randomly divided into 2 groups, purchased from Zhejiang Vital River Laboratory Animal Technology Co., Ltd, animal production license number: SCXK (Shanghai) 2017-0005.
A certain amount of compound 10 was weighed, dissolved by adding 5% by volume of DMSO and 5% Tween 80 (Shanghai Titan Scientific Co., Ltd.), and then prepared into a 0.1 mg/mL clear solution by adding 90% normal saline. Compound AZD4320 was formulated as with compound 10. […]
The content of the test compounds at different concentrations in plasma of mice after the administration was determined: 10 μL of plasma of mice at each time point after the administration was mixed with 200 μL of methanol (containing an internal standard solution camptothecin (100 ng/mL)); the mixture was vortexed for 1 min, and centrifuged for 10 min (18,000 r/min), and 3 μL of supernatant was taken for LC/MS/MS analysis.

CN(CCO)CC[C@H](CSc1ccccc1)Nc1ccc(S(=O)(=O)NC(=O)c2ccc(N3CCC([C@@H](O)c4ccccc4-c4ccc(Cl)cc4)CC3)cc2)cc1S(=O)(=O)C(F)(F)F [AZD4320, reference compound]
Apparent distribution volume Vz/F: 19.472 L/kg

CN(CCO)CC[C@H](CSc1ccccc1)Nc1ccc(S(=O)(=O)NC(=O)c2ccc(N3CCC([C@@H](O)c4ccccc4-c4ccc(C(F)(F)F)cc4)CC3)cc2)cc1S(=O)(=O)C(F)(F)F [Example 2-10, 4-(4-((R)-hydroxy(4′-(trifluoromethyl)-[1,1′-biphenyl]-2-yl)methyl)piperidin-1-yl)-N-((4-(((R)-4-((2-hydroxyethyl)(methyl)amino)-1-(phenylthio)butan-2-yl)amino)-3-((trifluoromethyl)sulfonyl)phenyl)sulfonyl)benzamide]
Apparent distribution volume Vz/F: 56.688 L/kg
